This is one part of the list.

The target in the assay is T1, OsSMF1 (Oryza sativa, UniProt Q6ZLB0 1-436).
T1 sequence: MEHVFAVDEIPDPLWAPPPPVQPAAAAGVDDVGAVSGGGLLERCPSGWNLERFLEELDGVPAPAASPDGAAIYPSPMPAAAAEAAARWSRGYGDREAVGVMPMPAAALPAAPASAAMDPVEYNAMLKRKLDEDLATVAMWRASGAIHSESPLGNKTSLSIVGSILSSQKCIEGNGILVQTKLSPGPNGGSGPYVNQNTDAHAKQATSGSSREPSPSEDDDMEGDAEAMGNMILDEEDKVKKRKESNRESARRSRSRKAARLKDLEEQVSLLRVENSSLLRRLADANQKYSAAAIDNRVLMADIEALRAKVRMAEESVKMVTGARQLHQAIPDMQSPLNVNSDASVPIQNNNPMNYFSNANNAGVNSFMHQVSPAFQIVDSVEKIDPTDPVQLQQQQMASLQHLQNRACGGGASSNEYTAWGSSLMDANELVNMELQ
As to the kind of experiment: protein-binding microarray (RPBM); PBS, 2% BSA, 51.3 ng/ul salmon testes DNA, 50 uM zinc acetate, 200 nM TF, 25 C, 1 h; high values mean tight binding. Particulars: protein: recombinant; tags: N-terminal polyhistidine and DsRed monomer fusion (pET32a); chain copies: 2; label: CyDye5-dUTP incorporated in the synthesized complementary strand; 3' TTTTT single-stranded linker to array surface; dsDNA, one strand shown. In outline:
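Per-feature fluorescence intensity (arbitrary units), read on an Axon 4000B scanner, is the binding signal. Transcription factors carrying an N-terminal polyhistidine tag and DsRed fusion were expressed in E. coli BL21-CodonPlus and purified on Ni–NTA. A custom Agilent array, made double-stranded by primer extension with Cy5-dUTP and blocked with 2% BSA, was incubated with 200 nM protein in PBS, 2% BSA, salmon testes DNA and 50 µM zinc acetate at 25 °C for 1 h and then washed.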
For the sequence “GGATGAACTGTCAGCATTTTGATTAGTTTTAAAATGTCAGCGGAGTCACCTAGTGCAG”, the binding signal was 4290 fluorescence intensity (a.u.).

With “CCCAAATTTAGTTGGAGACACGTAACCCGCTCAAAGCGCCCGGAGTCACCTAGTGCAG”, the binding signal is 7400 fluorescence intensity (a.u.).

In the case of “ATGCTGCGATGCAAGTGACATCCTGCCAGCGCCAGGATTTCGGAGTCACCTAGTGCAG”, the binding signal is 3340 fluorescence intensity (a.u.). The same measure for “GGCACCGCGCGGAAGGGGAAGAGGCGGCGACGAGAGTATTCGGAGTCACCTAGTGCAG”: 27500 fluorescence intensity (a.u.). On to “TGCTGGGAAGCTCATGTCGAAAAGATAAACGTGAACTGAACGGAGTCACCTAGTGCAG”, for which the binding signal is 14100 fluorescence intensity (a.u.). The result for “TCGTCGAGCTGGGCCGAGCGGCGCGGCTCGTGCGCGACGGCGGAGTCACCTAGTGCAG” reads 3350 fluorescence intensity (a.u.); that for “CGCATCCCGGCCCATCCGCCTCGTCAGCGGCGGCGCACCACGGAGTCACCTAGTGCAG”, 10800 fluorescence intensity (a.u.); that for “TTGACAAATTTTCTAAGTTTGCTCATTTCATTCCTTTAGCCGGAGTCACCTAGTGCAG”, 3300 fluorescence intensity (a.u.). As to “TATGAGTATCCTATATACATATATATACATATATATATACCGGAGTCACCTAGTGCAG”, the binding signal is 27300 fluorescence intensity (a.u.). As for “CGTGTCCAACACTACAGCAGCGCCTCTGCCACCAGCCAACCGGAGTCACCTAGTGCAG”, the binding signal was 3740 fluorescence intensity (a.u.). With “CGATCACGTTATAAATTTTAGCGTCGGATTTCATGCTCTCCGGAGTCACCTAGTGCAG”, the binding signal was 6620 fluorescence intensity (a.u.). Take “GCGGGTGCTCTTGCGGGCAGATCCAGCAGTGACAATGACTCGGAGTCACCTAGTGCAG”: the binding signal was 3280 fluorescence intensity (a.u.). As to “AAGATGGTCACGTCTACGAGCACGCGGGTCAGAAAACGGACGGAGTCACCTAGTGCAG”, the binding signal was 3380 fluorescence intensity (a.u.). The result for “CTTACAGCATCAAGAACATGGAGAACACGTCAGAAACTAACGGAGTCACCTAGTGCAG” reads 5700 fluorescence intensity (a.u.); that for “GCTCGAAGCTGACATGGCGATGACGGGGACGGCGCCCTGGCGGAGTCACCTAGTGCAG”, 8950 fluorescence intensity (a.u.). In the case of “GTCACCATGTGAACACGTATGCTTCTCTTCATTCATTCTTCGGAGTCACCTAGTGCAG”, the binding signal was 7220 fluorescence intensity (a.u.). As to “GATACTGGACGAGAGCGTGGAATGCGCGGTGAGACTTGGTCGGAGTCACCTAGTGCAG”, the binding signal is 38800 fluorescence intensity (a.u.). Regarding “CCACATATCCACTTAACCAGTTAGATTATTCGGTATATCCCGGAGTCACCTAGTGCAG”, the binding signal is 4230 fluorescence intensity (a.u.). The result for “AACAACCAGAGCTTTGGCTCTGTTCATCCAAAGGCGTTCCCGGAGTCACCTAGTGCAG” reads 24200 fluorescence intensity (a.u.); that for “TGGAGAGGGAGGAGGAAGAAGATGAGGGGTGAGTATGACACGGAGTCACCTAGTGCAG”, 4020 fluorescence intensity (a.u.). The same measure for “GCACGATAGGCTGTCGTGCCTTCGTTCGAACCGGCACGACCGGAGTCACCTAGTGCAG”: 27100 fluorescence intensity (a.u.); for “TCGTCGCCGCTGTCGTGGCCTCCTTGAGCCCTTGACGAGGCGGAGTCACCTAGTGCAG”: 5100 fluorescence intensity (a.u.); for “ATGTCTGCGGCCGTCACGTGCAGTATTTATCCGCCGACCCCGGAGTCACCTAGTGCAG”: 4810 fluorescence intensity (a.u.).

In the case of “CCGCACGCCAAGTCCCCACGCTGACCCACCTCGCTGCGTGCGGAGTCACCTAGTGCAG”, the binding signal is 5320 fluorescence intensity (a.u.). On to “GGTTTACTTGTTTGGTCGGCGCTACACGTGGTGTAATGAGCGGAGTCACCTAGTGCAG”, for which the binding signal was 5950 fluorescence intensity (a.u.).

For the sequence “CTCCATATGGATGACAGGGAAAGATATTTCTTTAAGGTTACGGAGTCACCTAGTGCAG”, the binding signal was 3320 fluorescence intensity (a.u.). The result for “AACCGGACTGGTTTCTCTTACGTGGCTCCCTTTACATTACCGGAGTCACCTAGTGCAG” reads 14000 fluorescence intensity (a.u.); that for “GGCTTACCGCTAGGGAAGAAGTGGTACGATGTGGGGATAGCGGAGTCACCTAGTGCAG”, 22000 fluorescence intensity (a.u.). Turning to “ATTACAGTACGATTGTACTGTAATTACATCTGTCAAATTTCGGAGTCACCTAGTGCAG”, the binding signal is 18600 fluorescence intensity (a.u.). The same measure for “AGTGTCTCTATTATCACAAAACTATAGGTTTTAGCATTGTCGGAGTCACCTAGTGCAG”: 21000 fluorescence intensity (a.u.); for “GTAGTAGTATACTCCTTGTCAGTCAGTCTGTAGCTAGTCACGGAGTCACCTAGTGCAG”: 3560 fluorescence intensity (a.u.).

As to “CCTCCCCACGTCGCCAAATCCACCCACGTCGCCGCCGATCCGGAGTCACCTAGTGCAG”, the binding signal was 5060 fluorescence intensity (a.u.). With “GCCACTGAGCCATGCCACGGCATCGGCCTTCTCCTCGGCACGGAGTCACCTAGTGCAG”, the binding signal was 4310 fluorescence intensity (a.u.). With “TCAAATTCTTGCGTGTCCATGTCACTACCCTTTTGTAACTCGGAGTCACCTAGTGCAG”, the binding signal is 7090 fluorescence intensity (a.u.).

For the sequence “TGGCTCGCCGCAGCAGAAGGGGATAAGAGGGATTATGACACGGAGTCACCTAGTGCAG”, the binding signal is 3710 fluorescence intensity (a.u.).

Take “GCTTGCCAAATGTCAACGCACGAGTTGTACTCTCTTATTGCGGAGTCACCTAGTGCAG”: the binding signal was 3420 fluorescence intensity (a.u.). Regarding “GCTGCCGTGCTGCACCTATAAATTCACATGCACCGGCATGCGGAGTCACCTAGTGCAG”, the binding signal was 3540 fluorescence intensity (a.u.). The same measure for “ATGGAACGGCGACACGGCCTTGTGTGGGCATGGCAGGCGGCGGAGTCACCTAGTGCAG”: 33400 fluorescence intensity (a.u.); for “TTTGAGGCAGATGGCTGAAGACCACCATTGCCACCTCAAGCGGAGTCACCTAGTGCAG”: 3190 fluorescence intensity (a.u.); for “CGGCGGAGGAGGAGGAGGAGGGGTGGGGAAGAAGAGGGGACGGAGTCACCTAGTGCAG”: 4120 fluorescence intensity (a.u.). The result for “GAGCCCATTGTGAAATCTGTTTTGTACCCTTAGTCATCGTCGGAGTCACCTAGTGCAG” reads 4020 fluorescence intensity (a.u.). The result for “TGAACTTGGAAGGGTAGGGTCTGCGCTTGTCCTGACGAGGCGGAGTCACCTAGTGCAG” reads 3470 fluorescence intensity (a.u.).

Source of the values: paper PMC7819943, “Rice protein-binding microarrays: a tool to detect cis-acting elements near promoter regions in rice”.
